PubChem BioAssay AID485353 (National Center for Advancing Translational Sciences (NCATS), 2010)
About 610 (0.18%) of roughly 330,000 compounds were called active. Inconclusive results, whose numbers are uncertain, are shown with a selection of clear calls. The call rests on the fitted dose curve. Where the call is inconclusive, the potency comes from a doubtful curve fit.

assay: qHTS of Yeast-based Assay for SARS-CoV PLP; further: nearly all actives have a fitted effect of over 55% in size; on activity, positive = growth rescue: 0% is about no effect; details: S. cerevisiae expressing SARS-CoV PLpro; Potency: growth rescue; activity, positive = growth rescue: at 32.9 µM (top of the series)
Potency means the concentration at half of the fitted maximal effect.

| SMILES | activity, positive = growth rescue | Potency |
| --- | --- | --- |
| Cc1nc(NC(=O)CN2CCOCC2)sc1C(=O)N(C)C | inactive: 2.26% |  |
| O=C1/C(=C/c2ccco2)SC(=S)N1CCC(=O)N1CCCCC1CCO (configuration not stated) | inactive: 15.4% |  |
| Cc1cccc(NC(=S)NC(=O)c2ccc(-c3ccccc3)cc2)n1 | inactive: -6.17% |  |
| CC(CC(=O)NCc1ccc(Cl)cc1)S(=O)(=O)c1ccc2c(c1)NC(=O)CO2 (configuration not stated) |  | inconclusive: 2.82 µM [activator, partial curve] |
| O=C(Nc1cc(Cl)cc(Cl)c1)C(NCCO)c1ccccc1 (configuration not stated) |  | inconclusive: 3.98 µM [activator, single point] |
| CC(=O)Nc1ccc(SCC(=O)Nc2oc(C)c3c(C)n[nH]c(=O)c23)cc1 | inactive: -4.06% |  |
| Cn1c2ccsc2c2ncn(Cc3ccccc3F)c(=O)c21 |  | inconclusive: 3.98 µM [activator, partial curve] |
| N#Cc1ccccc1Cn1c(=O)n(CCC(=O)NCc2ccco2)c(=O)c2ccccc21 |  | inconclusive: 8.91 µM [activator, partial curve] |
| CN(C(=O)CC1C(=O)NCCN1Cc1cccc(F)c1F)C1CCOCC1 (configuration not stated) |  | inconclusive: 3.98 µM [activator, single point] |
| CCCc1cc(=O)oc2cc(OCC(=O)Nc3ccccn3)ccc12 | inactive: 2.77% |  |
| O=C(CSc1nc2ccccc2s1)NNC(=S)Nc1ccccc1 |  | inconclusive: 8.91 µM [activator, partial curve] |
| CCc1cc(C(c2ccccn2)N2CCN(C)CC2)c(NC(=O)c2ccccc2)s1 (configuration not stated) |  | inconclusive: 4.47 µM [activator, single point] |
| O=C(CSc1ncccn1)N/N=C/c1ccc2c(c1)OCO2 | inactive: -5.27% |  |
| COc1cccc(/C=N/Nc2ncnc(Cl)c2N)c1O |  | active: 4.47 µM |
| COc1ccccc1NS(=O)(=O)c1ccc(C)c(NC(=O)c2ccc(S(=O)(=O)N3CCCCCC3)cc2)c1 |  | inconclusive: 2.51 µM [activator, partial curve] |
| Cc1ccc(-n2nnnc2SCC(=O)NCC2CCCO2)cc1C (configuration not stated) |  | inconclusive: 10 µM [activator, partial curve] |
| O=C(NCc1ccccc1C(F)(F)F)C1CCC(=O)N(C2CC2)C1 (configuration not stated) |  | inconclusive: 3.98 µM [activator, full curve] |
| CC1CCC(C(=O)NC(C(=O)NCCN2CCC(C)CC2)C(C)C)CC1 (configuration not stated) |  | inconclusive: 3.55 µM [activator, single point] |
| CC(C)CC(=O)Nc1cc([N+](=O)[O-])ccc1Cl |  | inconclusive: 20 µM [activator, single point] |
| CCOC(=O)N1CCN(S(=O)(=O)c2ccc(C(=O)Nc3nnc(CC)o3)cc2)CC1 |  | inconclusive: 3.98 µM [activator, partial curve] |
| COc1ccc(C(=O)N2CCN(c3ccc(C)cc3)CC2)cc1OC |  | inconclusive: 20 µM [activator, partial curve] |
| COc1ccc(/C(N)=N/OC(=O)c2cccc([N+](=O)[O-])c2C)cc1OC |  | inconclusive: 17.8 µM [activator, single point] |
| Cc1[nH]c(=O)c(C#N)c2c1CSC(C)(C)C2 |  | inconclusive: 3.55 µM [activator, single point] |
| O=C(Nc1ccccc1C(F)(F)F)c1cc(S(=O)(=O)N2CCC3(CC2)OCCO3)ccc1F |  | inconclusive: 4.47 µM [activator, single point] |

| SMILES | activity, positive = growth rescue | Potency |
| --- | --- | --- |
| O=c1oc2c(O)c(O)cc3c(=O)oc4c(O)c(O)cc1c4c23 |  | active: 1.41 µM |
| CC1CSc2ccccc2NC1=S (configuration not stated) |  | active: 10 µM |
| CCOc1ccc(C(=O)NNC(=O)CN2C(=O)NC3(CCCC3)C2=O)cc1 | inactive: -8.19% |  |
| Cn1nc(C(C)(C)C)c([N+](=O)[O-])c1C(=O)NC1CCCCC1 |  | inconclusive: 11.2 µM [activator, single point] |
| Cc1ccc(C)c(NS(=O)(=O)c2ccc(NC(=O)c3ccco3)cc2)c1 |  | inconclusive: 10 µM [activator, partial curve] |
| Cc1ccc(-c2nn(C)c(=O)c3ccccc23)cc1CNC(=O)NC1CCCCC1 | inactive: -0.0261% |  |
| O=C(CN1CCN(c2ncccn2)CC1)Nc1ccccc1-n1cccc1 |  | active: 14.1 µM |
| Cc1ccnc(NC(c2ccccc2O)c2oc(CO)cc(=O)c2O)c1 (configuration not stated) |  | inconclusive: 11.2 µM [activator, single point] |
| COc1cccc(/C=N/NC(=O)c2[nH]c(C)c(C(=O)N/N=C/c3cccc(OC)c3O)c2C)c1O |  | inconclusive: 20 µM [activator, single point] |
| O=S(=O)(Nc1nc2c(s1)CCCC2)c1ccc(Br)cc1 |  | inconclusive: 22.4 µM [activator, single point] |
| COc1cc(/C=C2\SC(=S)N(NC(=O)c3ccc(O)cc3)C2=O)ccc1O | inactive: 1.31% |  |
| N#CC1=C(C=Nc2ccccc2O)CCC1 | inactive: -2.99% |  |
| CCN(CC)CC(=O)Nc1c(C)cccc1C |  | inactive |
| CN(C)S(=O)(=O)c1cc(NC(=O)CSc2nn(-c3ccc(Cl)cc3)c(=S)s2)ccc1Cl |  | inconclusive: 20 µM [activator, single point] |
| C=CCOc1cccc(/C=N/NC(=O)CN2CCCCC2)c1 | inactive: -2.33% |  |
| COc1cc([N+](=O)[O-])ccc1NC(=O)NNC(=O)CCc1ccccc1 |  | inconclusive: 3.55 µM [activator, single point] |
| NC(=O)CSc1nnc(-c2cnccn2)n1Cc1ccco1 | inactive: 3.1% |  |
| COc1ccc(C(=O)NC(=S)NNC(=O)c2cnccn2)cc1OC |  | active: 3.98 µM |
| COc1ccc(OC)c(/C=N/NC(=O)c2[nH]nc3c2CCc2ccccc2-3)c1 | inactive: -12.1% |  |
| S=C(NCCc1ccccc1)NC1CC1 |  | inconclusive: 11.2 µM [activator, partial curve] |
| CC(n1cnnn1)C12CC3CC(CC(C3)C1)C2 (configuration not stated) | inactive: -1.5% |  |
| O=C(NC(Cc1ccc2c(c1)OCO2)C(=O)N1CCCC1C(=O)O)c1ccccc1 (configuration not stated) |  | inconclusive: 14.1 µM [activator, single point] |
| O=C(Nc1nc2ccccc2n1CCN1CCOCC1)c1cn(-c2ccccc2)nc1-c1ccccc1 |  | inconclusive: 20 µM [activator, single point] |
| COc1ccc(N2C(=O)C3CCCN3C2c2ccc(Cl)cc2)cc1 (configuration not stated) |  | inconclusive: 22.4 µM [activator, single point] |

Retrieved by structure from the list above, 3 records:

| SMILES | activity, positive = growth rescue | Potency |
| --- | --- | --- |
| O=C(CN1CCN(c2ncccn2)CC1)Nc1ccccc1-n1cccc1 |  | active: 14.1 µM |
| CN(C)S(=O)(=O)c1cc(NC(=O)CSc2nn(-c3ccc(Cl)cc3)c(=S)s2)ccc1Cl |  | inconclusive: 20 µM [activator, single point] |
| NC(=O)CSc1nnc(-c2cnccn2)n1Cc1ccco1 | inactive: 3.1% |  |

Remaining list, next part:

| SMILES | activity, positive = growth rescue | Potency |
| --- | --- | --- |
| Cc1ccc2nc(NC(=O)C3CCN(S(=O)(=O)c4cnc[nH]4)CC3)sc2c1 |  | inconclusive: 20 µM [activator, single point] |
| Cc1ccc(NC(=O)CSc2nnc(-c3ccco3)c(-c3ccco3)n2)cc1 |  | inconclusive: 3.55 µM [activator, single point] |
| NC(=O)CN(c1ccc(Oc2ccccc2)cc1)S(=O)(=O)c1ccccc1 |  | inconclusive: 3.98 µM [activator, single point] |
| CCOC(=O)CC1C(=O)NCCN1C(=O)NC1CCCCC1 (configuration not stated) |  | inconclusive: 4.47 µM [activator, single point] |
| COc1ccc(CCNC(=O)COC(=O)/C=C/c2ccc(OCC#N)c(OC)c2)cc1OC |  | inconclusive: 20 µM [activator, single point] |
| CN(C)S(=O)(=O)c1cccc(NC(=S)NNC(=O)c2cc3ccccc3cc2O)c1 |  | active: 4.47 µM |
| Cc1cc(C)n(-c2nncc(-c3ccccc3)n2)n1 |  | inconclusive: 11.2 µM [activator, single point] |
| CN1CCN(c2ccc(NC(=O)COc3ccccc3Cl)cc2)CC1 | inactive: -3.55% |  |
| CCOC(=O)c1c(NC(=O)CSc2ncccn2)sc2c1CC(C)(C)NC2(C)C |  | inconclusive: 20 µM [activator, single point] |
| COc1ccc(OC)c(NC(=O)CSc2ncccn2)c1 | inactive: 3.04% |  |
| Cc1ccc2[nH]c(O)c(N=NC(=O)CCc3ccccc3)c2c1Br |  | inconclusive: 10 µM [activator, partial curve] |
| c1ccc(-c2ccccc2OCCOCCN2CCc3ccccc3C2)cc1 | inactive: -0.655% |  |
| COc1ccc(C(=O)C2CCCN(C(=O)c3ccc(F)cc3)C2)cc1OC (configuration not stated) | inactive: -5.04% |  |
| CCOC(=O)N1CCN(S(=O)(=O)c2ccc(C(=O)NNc3nc4c(C)cc(C)cc4s3)cc2)CC1 |  | inconclusive: 2.82 µM [activator, full curve, poor fit] |
| CCN(CC(=O)Nc1ccc(NC(C)=O)cc1)C(=O)/C=C/c1c(C)nn(-c2ccc(F)cc2)c1C |  | inconclusive: 17.8 µM [activator, single point] |
| O=C(NCCOc1cccc(Oc2ccccc2)c1)c1cc(-n2cnnc2)ccc1Cl |  | inconclusive: 3.98 µM [activator, single point] |
| O=C(CSc1nc2ccccc2n1CCc1ccccc1)N1CCOCC1 | inactive: -14.1% |  |
| COC(=O)c1ccc2c(c1)C(=O)/C(=C/c1ccc(C)cc1)O2 |  | inconclusive: 3.16 µM [activator, full curve] |
| Cc1ccc(-c2cc(-c3ccccc3)c(C#N)c(Br)n2)cc1 |  | inconclusive: 11.2 µM [activator, partial curve, poor fit] |
| Cc1ccc(C(=O)N/C(=C/c2ccco2)C(=O)OCN2C(=O)c3ccccc3C2=O)cc1 |  | inconclusive: 20 µM [activator, single point] |
| O=C(CCl)Nc1cccc(-c2cnc3ccccc3n2)c1 |  | inconclusive: 10 µM [activator, partial curve] |
| Cc1ccc(/C=N/n2c(-c3cccnc3)n[nH]c2=S)o1 | inactive: 0.177% |  |
| Cc1cccc(Cn2c(C(C)(C)C)cc3cccnc32)c1 |  | inconclusive: 3.98 µM [activator, single point] |
| COC(=O)C1C(=O)NC(SC)=C(C#N)C1c1ccccc1 (configuration not stated) |  | inconclusive: 12.6 µM [activator, partial curve] |
